Reference: US9428519B2, “Acylated derivative of homoharringtonine, preparation method therefor, and application thereof” (HANGZHOU BENSHENG PHARMACEUTICAL CO., LTD., priority 2011, dated 2016)
Some of these results come from one statement about several compounds together.

Assays:
Settings in all cases: vs HHT
[1] = test system: Becap37 (human breast cancer cell); test: MTT growth inhibition of human solid tumor cells, 72 h; assay type: cell-based
Protocol: (§1) Human solid tumor cell lines: Hep-2 (laryngeal carcinoma), A549 (human lung cancer), CaES-17 (esophageal cancer cell), PC-3 (prostate cancer), CNE (nasopharyngeal carcinoma cell), and SK-OV-3 (ovarian cancer cell), all of which are purchased from China Center For Type Culture Collection; RKO (human colon adenocarcinoma cell), MGC 803 (human gastric cancer cell), MG63 (osteosarcoma) and U87 MG (malignant glioma cell), all of which are purchased from Fuxiang Bio-tech Co. Ltd., Shanghai, China; PANC-1 (pancreatic cancer), Huh7 (human liver cancer cell), Becap37 (human breast cancer cell), and Hela (human cervical cancer cell), all of which are donated by Cancer Research Institute of Zhejiang University, China.
(§2) Obtaining 4000 well-growing human solid tumor cells and inoculating them into wells of a 96-well cell culture plate. The culture medium is DMEM High Glucose cell culture medium containing 10% fetal bovine serum. The plate is placed in a carbon dioxide cell incubator (5% CO2) at 37° C. and incubated for 24 hours. After adding the homoharringtonine derivatives of different concentration and mixing uniformly, the plate is placed in a carbon dioxide cell incubator (5% CO2) at 37° C. and incubated for 72 hours. Then the viable cell concentration is determined by the MTT method and the cell viability (%) after drug treatment is calculated. In this experiment, the cell viability of control group (not treated with any compound) is set as 100%.

[2] = test system: A549 (human lung cancer); test: as above; assay type: cell-based
Protocol: as §1, §2

[3] = test system: Hep-2 (laryngeal carcinoma); test: as above; assay type: cell-based
Protocol: as §1, §2

[4] = test system: Huh7 (human liver cancer cell); test: as above; assay type: cell-based
Protocol: as §1, §2

[5] = test system: CaES-17 (esophageal cancer cell); test: as above; assay type: cell-based
Protocol: as §1, §2

[6] = test system: RPMI8226 (multiple myeloma); test: MTT growth inhibition of multiple myeloma cells, 72 h; assay type: cell-based, human
Protocol: Multiple myeloma and lymphoma cell lines: RPMI8226 (multiple myeloma), purchased from Fuxiang Bio-tech Co. Ltd., Shanghai, China.
Obtaining 6000 well-growing leukemia cells and inoculating them into wells of a 96-well cell culture plate. The culture medium is the 1640 cell culture medium containing 10% fetal bovine serum. After adding the homoharringtonine derivatives of different concentrations and mixing uniformly, placing the plate in a carbon dioxide cell incubator (5% CO2) at 37° C. and incubated for 72 hours. Then the viable cell concentration is determined by the MTT method. In this experiment, the cell viability in control group (not treated with any compound) is set as 100%. On such basis, the cell viability (%) after treatment and the 50% inhibiting concentration of the compound for the leukemia cell growth at 72 hours (IC50 value of 72 hours) are calculated.

Row | Compound | anti-Becap37 effect relative to homoharringtonine [1] | anti-A549 effect relative to homoharringtonine [2] | anti-Hep-2 effect relative to homoharringtonine [3] | anti-Huh7 effect relative to homoharringtonine [4] | anti-CaES-17 effect relative to homoharringtonine [5] | anti-RPMI8226 effect relative to homoharringtonine [6]
1 | COC(=O)C[C@](O)(CCCC(C)(C)OC(C)=O)C(=O)O[C@@H]1C(OC)=C[C@]23CCCN2CCc2cc4c(cc2[C@H]13)OCO4 [BS-HH-002, 6-acetylhomoharringtonine] | more than 2 fold | more than 3 fold | more than 2 fold | more than 2 fold | more than 2 fold | more than 2 fold
2 | COC(=O)C[C@](O)(CCCC(C)(C)OC(=O)c1ccco1)C(=O)O[C@@H]1C(OC)=C[C@]23CCCN2CCc2cc4c(cc2[C@H]13)OCO4 [BS-HH-059] | more than 2 fold |  |  |  |  | 
3 | COC(=O)C[C@](O)(CCCC(C)(C)OC(=O)Cc1ccccc1)C(=O)O[C@@H]1C(OC)=C[C@]23CCCN2CCc2cc4c(cc2[C@H]13)OCO4 [BS-HH-074] | more than 2 fold | more than 3 fold | more than 2 fold |  |  | more than 2 fold
4 | COC(=O)C[C@](O)(CCCC(C)(C)OC(=O)C1CCCC1)C(=O)O[C@@H]1C(OC)=C[C@]23CCCN2CCc2cc4c(cc2[C@H]13)OCO4 [BS-HH-077] |  |  | more than 2 fold |  |  | 
5 | COC(=O)C[C@](O)(CCCC(C)(C)OC(=O)c1scnc1C)C(=O)O[C@@H]1C(OC)=C[C@]23CCCN2CCc2cc4c(cc2[C@H]13)OCO4 [BS-HH-0721] | more than 2 fold | more than 3 fold | more than 2 fold | more than 2 fold | more than 2 fold | more than 2 fold
